From the supplement of paper PMC3334620
In all, about 33,000 sequences were measured (“E-score (-0.5 to 0.5)”: median about -0.0034, highest 2% from about 0.25 on). Some of the results follow.

The sequences below were run against T1, Yap3 (UniProt P38749) (assay: PBM E-score (8-mer binding enrichment) (E-score (-0.5 to 0.5)); higher = stronger / more preferred TF binding). Conditions: protein concentration: 100 nM; construct: GST-full length.
T1 sequence: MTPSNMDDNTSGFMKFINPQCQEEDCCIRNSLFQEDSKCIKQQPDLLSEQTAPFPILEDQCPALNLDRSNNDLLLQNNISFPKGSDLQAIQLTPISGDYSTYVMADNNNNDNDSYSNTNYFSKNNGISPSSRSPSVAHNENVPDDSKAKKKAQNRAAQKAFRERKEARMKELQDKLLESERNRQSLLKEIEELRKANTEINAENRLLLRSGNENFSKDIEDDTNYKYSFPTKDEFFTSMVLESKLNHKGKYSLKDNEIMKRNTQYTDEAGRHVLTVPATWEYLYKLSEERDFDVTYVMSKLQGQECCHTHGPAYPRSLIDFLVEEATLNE
Method in brief: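 Detection of bound protein used fluorescent anti-GST, with scans normalised by masliner. The proteins were GST-tagged yeast transcription factors applied at about 100-200 nM to universal all-10-mer Agilent arrays made double-stranded by primer extension. Each ungapped eight-base word, pooled with its reverse complement, was scored with an E-score from the Universal PBM Analysis Suite.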
For GCAGGGGC, the “PBM E-score” value was -0.239. For AGAAACCG, the “PBM E-score” value was 0.00024. With GTCTGATA the “PBM E-score” value was -0.0676. For CTCGACGA, the “PBM E-score” value was -0.00087. With CCTGCTCG the “PBM E-score” value was -0.176. For GCCAATCC, the “PBM E-score” value was -0.0933. With CTCAGGGA the “PBM E-score” value was -0.306. For GATCGCTA, the “PBM E-score” value was 0.0442. With GCACTGGA the “PBM E-score” value was -0.128. With AAAGTAGA the “PBM E-score” value was 0.0361. For ATGCGGCA, the “PBM E-score” value was -0.0382. With ATAATCAA the “PBM E-score” value was 0.139. With CCATCCGA the “PBM E-score” value was 0.00547. With ATTTGACA the “PBM E-score” value was 0.141. In the case of AAACGCAT, the “PBM E-score” value is reported as -0.0739. With TATGATAA the “PBM E-score” value was 0.228. With TCGGGAAA the “PBM E-score” value was 0.0336. GTCTAATA was tested, and the “PBM E-score” value was -0.0245. For CTAAGGGC, the “PBM E-score” value was -0.105. For CGGCGGAG, the “PBM E-score” value was -0.188. GCAATTTA was tested, and the “PBM E-score” value was 0.139. In the case of AGAGTGCC, the “PBM E-score” value is reported as -0.123. For GTTTCCAA, the “PBM E-score” value was 0.0773. For GGGTCAAA, the “PBM E-score” value was -0.0112. With AGTCCCTA the “PBM E-score” value was -0.219. With ATAGGATA the “PBM E-score” value was 0.073. For ATGCGCAG, the “PBM E-score” value was -0.191. For AACTTACC, the “PBM E-score” value was 0.0604. For GACTAAAA, the “PBM E-score” value was 0.0994. In the case of ACGTATAG, the “PBM E-score” value is reported as 0.0089. In the case of CTAACAAC, the “PBM E-score” value is reported as 0.173. For AGTACTTG, the “PBM E-score” value was 0.0831. For CGATCAGA, the “PBM E-score” value was -0.165. CGAATATA was tested, and the “PBM E-score” value was 0.148. In the case of ACCTCAAT, the “PBM E-score” value is reported as 0.0286. For AAGTTTCG, the “PBM E-score” value was 0.0152. With AAGTGATA the “PBM E-score” value was 0.127. TAATTGGA was tested, and the “PBM E-score” value was 0.102. CGACCGCC was tested, and the “PBM E-score” value was -0.115. With TAAAATCA the “PBM E-score” value was 0.142. For CACGGAGA, the “PBM E-score” value was -0.0952. AACATGTT was tested, and the “PBM E-score” value was 0.0459. In the case of CTCCAGGA, the “PBM E-score” value is reported as -0.133. With GCCGATAA the “PBM E-score” value was -0.0129. In the case of CGGGCACA, the “PBM E-score” value is reported as -0.102. With GGAGCAAA the “PBM E-score” value was 0.016. CGGGGCGC was tested, and the “PBM E-score” value was -0.263. ACGGCGGG was tested, and the “PBM E-score” value was -0.059. With ATGTAATG the “PBM E-score” value was 0.151. AACAGGCC was tested, and the “PBM E-score” value was -0.258. In the case of CCAAACCC, the “PBM E-score” value is reported as -0.00817. For CAAGCCTC, the “PBM E-score” value was -0.115. In the case of TTCAGAAA, the “PBM E-score” value is reported as -0.104. For AAAAGCCC, the “PBM E-score” value was -0.145. For AGTGAGGA, the “PBM E-score” value was -0.0477. AAAGCTTG was tested, and the “PBM E-score” value was -0.0115. For GGGTTCTA, the “PBM E-score” value was -0.166. CCTTACCC was tested, and the “PBM E-score” value was -0.0277. GCGCAGGA was tested, and the “PBM E-score” value was -0.226. In the case of CTTCTATA, the “PBM E-score” value is reported as 0.0204. CATACGAG was tested, and the “PBM E-score” value was -0.12. With AATACCCT the “PBM E-score” value was -0.0814. With AGTCAATA the “PBM E-score” value was 0.0842. For GCTTTGCC, the “PBM E-score” value was -0.238. For AGCGGCGA, the “PBM E-score” value was 0.0107. For CCGGTATA, the “PBM E-score” value was -0.0704. With ACGGATCA the “PBM E-score” value was 0.0642. With AAATTCTA the “PBM E-score” value was 0.0402. With GCTTCCAA the “PBM E-score” value was -0.0913. In the case of CCCGCACA, the “PBM E-score” value is reported as -0.144. With AAGGTTGT the “PBM E-score” value was 0.0702. For AACCTGGG, the “PBM E-score” value was -0.18. GCAAAGTA was tested, and the “PBM E-score” value was 0.135. With TCCCCACA the “PBM E-score” value was -0.244. TTAACTAA was tested, and the “PBM E-score” value was 0.223. AAGACGGT was tested, and the “PBM E-score” value was -0.0896. In the case of CCGGTGGC, the “PBM E-score” value is reported as -0.251. ACCTTATC was tested, and the “PBM E-score” value was 0.0868. For AGCCTCAA, the “PBM E-score” value was -0.105. GCCTTCTA was tested, and the “PBM E-score” value was -0.107. With ATGTACTC the “PBM E-score” value was -0.0174. With ACCCAATG the “PBM E-score” value was -0.11. In the case of ACGGCATC, the “PBM E-score” value is reported as 0.0133. With GTTTTTGA the “PBM E-score” value was 0.106. In the case of CCCACCCG, the “PBM E-score” value is reported as 0.0644. In the case of AACTTCGT, the “PBM E-score” value is reported as -0.0392. In the case of GTTGTGCA, the “PBM E-score” value is reported as -0.05. TCAGCTCA was tested, and the “PBM E-score” value was -0.022. In the case of CTCCGGTA, the “PBM E-score” value is reported as -0.0869. In the case of AAAGTCTG, the “PBM E-score” value is reported as 0.0218. In the case of CACTGACA, the “PBM E-score” value is reported as 0.0953. For CTGTTCAC, the “PBM E-score” value was 0.127. CATCAATG was tested, and the “PBM E-score” value was -0.00268. In the case of GTTAGCGA, the “PBM E-score” value is reported as 0.202. With AAGGAATC the “PBM E-score” value was -0.035. With ACACCTGA the “PBM E-score” value was 0.139. With ACAGGCAG the “PBM E-score” value was 0.068. ACACGGCA was tested, and the “PBM E-score” value was -0.073. In the case of CTCCGCTC, the “PBM E-score” value is reported as -0.0384. ATTACCCG was tested, and the “PBM E-score” value was -0.0587. For ATGCTTCC, the “PBM E-score” value was -0.0126. With ACCAAAAA the “PBM E-score” value was 0.277. With AACCAAAC the “PBM E-score” value was -0.128. For AGCACACC, the “PBM E-score” value was -0.14. ATTTAGGC was tested, and the “PBM E-score” value was 0.115. CAGATCTC was tested, and the “PBM E-score” value was -0.111. In the case of AGGCTCCC, the “PBM E-score” value is reported as -0.3. For ATCTAGGG, the “PBM E-score” value was 0.0785. With TCCAACCA the “PBM E-score” value was 0.0516. With ATCGTGCC the “PBM E-score” value was 0.00144. GACGTCTC was tested, and the “PBM E-score” value was -0.122. For GAGTGAAA, the “PBM E-score” value was 0.0428. ATCGCTTC was tested, and the “PBM E-score” value was -0.0152. CTTAAGGC was tested, and the “PBM E-score” value was -0.0946. In the case of GCAAACCA, the “PBM E-score” value is reported as 0.0279. For CGAGCACG, the “PBM E-score” value was -0.102. With AGCGAGAT the “PBM E-score” value was 0.159. GGTTAAAC was tested, and the “PBM E-score” value was 0.195. In the case of CGTAGTTC, the “PBM E-score” value is reported as -0.281. With ATTTGGGC the “PBM E-score” value was -0.0573. GCCGAGGC was tested, and the “PBM E-score” value was -0.0395. In the case of CTGGAGCC, the “PBM E-score” value is reported as -0.21. With AATGGGGT the “PBM E-score” value was 0.0578. For ATCCTAGG, the “PBM E-score” value was -0.134. CCTACAGA was tested, and the “PBM E-score” value was 0.034. For ACCCCGGT, the “PBM E-score” value was -0.284. AGCCGAAG was tested, and the “PBM E-score” value was -0.0551. For GAACGTTC, the “PBM E-score” value was -0.168. For ATTGCCAC, the “PBM E-score” value was 0.0447. AGCGATTA was tested, and the “PBM E-score” value was 0.00413. In the case of GAGCGTAC, the “PBM E-score” value is reported as -0.0951. With CTGAAAAG the “PBM E-score” value was 0.0582. In the case of CCGTGGCC, the “PBM E-score” value is reported as -0.154. In the case of ATCCATGA, the “PBM E-score” value is reported as -0.00451. CAGGACCA was tested, and the “PBM E-score” value was -0.062. CCTTGCAC was tested, and the “PBM E-score” value was 0.0279. CTGAGCAA was tested, and the “PBM E-score” value was -0.131. With CATGCTCA the “PBM E-score” value was 0.0168. AGCCTTCG was tested, and the “PBM E-score” value was -0.143. In the case of CATGCCTC, the “PBM E-score” value is reported as 0.0696. AGTAGGCC was tested, and the “PBM E-score” value was -0.124. For AACTGGTC, the “PBM E-score” value was 0.0455. With GCCGCGTA the “PBM E-score” value was -0.0697. In the case of AGAGGGTG, the “PBM E-score” value is reported as -0.219. CAGGCAGA was tested, and the “PBM E-score” value was -0.0495. For GTAGCTAA, the “PBM E-score” value was -0.0001. With CTAGCGGC the “PBM E-score” value was -0.328. CGTGAAAG was tested, and the “PBM E-score” value was 0.0888. With ACTGCCCA the “PBM E-score” value was -0.107. In the case of ACCAGCTA, the “PBM E-score” value is reported as 0.0261. ATTATCCC was tested, and the “PBM E-score” value was 0.0831. ATGCGCAA was tested, and the “PBM E-score” value was 0.0772. With GTCTGCGA the “PBM E-score” value was -0.153. In the case of AGATGATC, the “PBM E-score” value is reported as -0.0162. In the case of AGTCGTCG, the “PBM E-score” value is reported as -0.184. CGTCATTC was tested, and the “PBM E-score” value was 0.191. TGCAAGCA was tested, and the “PBM E-score” value was -0.143. With CTAAGTGC the “PBM E-score” value was -0.0725. In the case of CCATAGGG, the “PBM E-score” value is reported as -0.0755. With AAAGGCGT the “PBM E-score” value was -0.108. AACCAAGG was tested, and the “PBM E-score” value was 0.147. For GCCTCAAA, the “PBM E-score” value was -0.0442. For GGTTATAA, the “PBM E-score” value was 0.204. For CAACCACG, the “PBM E-score” value was 0.0756. CTGCAGGC was tested, and the “PBM E-score” value was -0.26. For GCTAAACA, the “PBM E-score” value was 0.018. With CTATGCCA the “PBM E-score” value was -0.0466. With ATCGTGGA the “PBM E-score” value was 0.0289. GAAGCGAC was tested, and the “PBM E-score” value was -0.00391. With AAGCCTAT the “PBM E-score” value was 0.106. With CGAGGATA the “PBM E-score” value was 0.0814. For CGGAGAGC, the “PBM E-score” value was -0.117.
